{"source": "patent US8962697B2", "about": "(Interface Biologics Inc., priority 2006, dated 2015)"}
{"tested_on": "Staphopain A and B", "test": "Staphopain A and B bioresponsive degradation assay", "type": "biochemical", "conditions": "100 nM staphopain, 1 μM substrate, room temperature, 2 hr"}
{"substance": "val-phe-phe-arg-arg-gln-thr-ala (VFFRRQTA) [LAR-7047]", "Degradation of peptide substrate by staphopain (fragment observed)": "No degradation"}
{"substance": "β-ala-asp-asp-ile-gly-thr-ser-arg-pro-gln-glu (ADDIGTSRPQE; N-terminal beta-alanine) [LAR-7022, peptide targeted to microbial excreted proteases (aureolysin, staphopain)]", "Degradation of peptide substrate by staphopain (fragment observed)": "produced specific fragment pick: 717.37 corresponding to TSRPQE sequence"}
{"substance": "Pro-arg-arg-ile-sys-val (PRRICV) [LAR-7048]", "Degradation of peptide substrate by staphopain (fragment observed)": "No degradation"}
